Experimental data: PubChem BioAssay AID652243 (Drosophila RNAi Screening Center, 2013)

Test: 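Fly regulators of androgen-dependent reporter output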 (primary screen)
Cell system: Drosophila S2R+ cells
Reagent: long dsRNA against Drosophila genes
Timing: 72 h (48 h, then 24 h hormone)
Challenge: synthetic androgen R1881 at 10 nM for 24 h
Measurement: 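Firefly light from an androgen-responsive reporter and Renilla control light per well, raw and unnormalised, for each of two replicates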
Direction: firefly reporter light: higher = more light from androgen-responsive reporter; Renilla control light: higher = more constitutive control signal (cell number, transfection)
Call rule: 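Across duplicate plates, a knock-down whose log firefly/Renilla ratio shifted a set fold down or up from the GFP/LacZ control mean was a hit; the downward cut appears as both 1.5 and 3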
Calls: active = hit: reporter lowered or raised; inactive = no hit
In all, the deposit lists about 24,000 reagents; shown is an unselected part of those with a known target gene and a result. Over the whole deposit, 246 (1%) are marked active. 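Plates not normalised; calls are printed but the firefly/Renilla ratio behind them is not deposited; fold cut for lowering reported inconsistently.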 Raw values are not corrected between plates. Reagents against one gene are numbered here. A plus sign joins genes that one reagent is predicted to hit. Not given: the amount of reagent.

target gene | reagent no. | firefly reporter light, replicate 1 | firefly reporter light, replicate 2 | Renilla control light, replicate 1 | Renilla control light, replicate 2 | Outcome
CG6527 (GeneID 39197) | 1 | 2.39e5 | 2.30e5 | 2.66e6 | 2.44e6 | inactive
Mettl14 (GeneID 34138) | 1 | 6.77e5 | 9.28e5 | 1.54e6 | 1.30e6 | inactive
Dpp10 (GeneID 33923) | 1 | 1.63e5 | 78133 | 2.06e5 | 1.29e5 | inactive
Dpp10 (GeneID 33923) | 2 | 1.22e5 | 1.04e5 | 1.33e6 | 1.03e6 | inactive
CG34057 (GeneID 3885645) | 1 | 58467 | 84537 | 6.80e5 | 6.53e5 | inactive
CG15891 + CG15892 | 1 | 53312 | 78814 | 7.47e5 | 6.61e5 | inactive
CG15891 + CG15892 | 2 | 1.51e5 | 2.09e5 | 1.48e6 | 2.81e6 | inactive
CG4839 (GeneID 34348) | 1 | 8.20e5 | 9.88e5 | 1.95e6 | 2.03e6 | inactive
CG4839 (GeneID 34348) | 2 | 2.28e5 | 1.72e5 | 1.10e6 | 1.05e6 | inactive
CG4839 (GeneID 34348) | 3 | – | – | – | – | inactive
CG8117 (GeneID 32499) | 1 | 3.52e5 | 3.48e5 | 3.65e6 | 3.15e6 | inactive
CG8117 (GeneID 32499) | 2 | 1.70e5 | 1.58e5 | 4.95e5 | 6.47e5 | inactive
GstO1 (GeneID 38975) | 1 | 1.04e5 | 1.26e5 | 1.37e6 | 1.36e6 | inactive
GstO1 (GeneID 38975) | 2 | 3.12e5 | 2.80e5 | 6.12e5 | 6.87e5 | inactive
CG4714 (GeneID 36470) | 1 | 7.20e5 | 6.85e5 | 1.87e6 | 2.06e6 | inactive
CG13315 (GeneID 50300) | 1 | 2.63e5 | 2.01e5 | 3.26e6 | 2.23e6 | inactive
CG16813 (GeneID 34724) | 1 | 8.31e5 | 8.68e5 | 8.84e5 | 9.43e5 | inactive
Tpc2 (GeneID 37983) | 1 | 2.24e5 | 2.53e5 | 1.45e6 | 1.71e6 | inactive
CG12099 (GeneID 38181) | 1 | 50997 | 64398 | 9.36e5 | 1.01e6 | inactive
CG1468 (GeneID 31920) | 1 | 1.53e5 | 1.28e5 | 9.90e5 | 8.62e5 | inactive
CG1468 (GeneID 31920) | 2 | 1.20e6 | 1.29e6 | 1.11e6 | 1.27e6 | inactive
TrpRS (GeneID 45399) | 1 | 99428 | 1.12e5 | 1.96e6 | 1.73e6 | inactive
CG43292 (GeneID 12798367) | 1 | 5.71e5 | 4.89e5 | 2.26e6 | 2.09e6 | inactive
sip2 (GeneID 33979) | 1 | 77259 | 72041 | 1.16e6 | 1.00e6 | inactive
Sp7 (GeneID 40918) | 1 | 69319 | 90444 | 1.45e6 | 1.50e6 | inactive
PsGEF (GeneID 31224) | 1 | 2.12e5 | 1.43e5 | 3.24e6 | 2.46e6 | inactive
PsGEF (GeneID 31224) | 2 | 2.66e5 | 2.06e5 | 3.52e6 | 3.28e6 | inactive
PsGEF (GeneID 31224) | 3 | 2.53e5 | 2.60e5 | 1.51e5 | 2.80e5 | inactive
rec (GeneID 49241) | 1 | 1.29e5 | 1.79e5 | 1.97e6 | 2.80e6 | inactive
rec (GeneID 49241) | 2 | 1.14e5 | 1.04e5 | 2.10e6 | 2.21e6 | inactive
CG2126 (GeneID 43748) | 1 | 2.63e5 | 2.44e5 | 2.09e6 | 2.39e6 | inactive
CG1317 (GeneID 38300) | 1 | 9.08e5 | 4.86e5 | 1.65e6 | 1.40e6 | inactive
Os-C (GeneID 40942) | 1 | 62551 | 93905 | 1.83e6 | 1.56e6 | inactive
Os-C (GeneID 40942) | 2 | 7.74e5 | 4.51e5 | 1.38e6 | 1.00e6 | inactive
CG4497 (GeneID 34001) | 1 | 7.03e5 | 7.23e5 | 1.79e6 | 1.93e6 | inactive
rtet (GeneID 42500) | 1 | 1.20e5 | 67867 | 1.06e6 | 1.16e6 | inactive
elm (GeneID 40695) | 1 | 78184 | 98997 | 2.21e5 | 2.90e5 | inactive
squ (GeneID 2768920) | 1 | 1.96e5 | 1.92e5 | 6.04e5 | 5.47e5 | inactive
MFS10 (GeneID 32263) | 1 | 74894 | 1.12e5 | 7.21e5 | 5.56e5 | inactive
MFS10 (GeneID 32263) | 2 | 3.71e5 | 2.96e5 | 8.38e5 | 5.82e5 | inactive
CG4880 (GeneID 32680) | 1 | 89024 | 73296 | 6.23e5 | 7.88e5 | inactive
Ythdf (GeneID 42995) | 1 | 1.08e5 | 1.40e5 | 1.64e6 | 2.17e6 | inactive
Ythdf (GeneID 42995) | 2 | 1.84e5 | 1.83e5 | 2.96e6 | 2.59e6 | inactive
Mvd (GeneID 32520) | 1 | 57782 | 1.04e5 | 4.48e5 | 5.61e5 | inactive
CG14490 (GeneID 37041) | 1 | 94259 | 1.29e5 | 1.79e6 | 1.79e6 | inactive
CG14490 (GeneID 37041) | 2 | 2.88e5 | 1.84e5 | 5.15e5 | 7.29e5 | inactive
THG (GeneID 34876) | 1 | 1.61e5 | 2.18e5 | 2.75e6 | 3.08e6 | inactive
Tim17b2 (GeneID 44381) | 1 | 4.61e5 | 7.29e5 | 1.06e6 | 1.74e6 | inactive
CG11037 (GeneID 40317) | 1 | 2.04e5 | 2.37e5 | 2.13e6 | 2.53e6 | inactive
Lipt1 + CG42837 | 1 | 1.15e6 | 7.16e5 | 1.93e6 | 1.13e6 | inactive
CG9970 (GeneID 38351) | 1 | 1.50e5 | 76452 | 2.12e6 | 1.44e6 | inactive
l(1)G0469 (GeneID 32371) | 1 | 58440 | 46759 | 4.00e5 | 3.66e5 | inactive
l(1)G0469 (GeneID 32371) | 2 | 8.77e5 | 7.73e5 | 5.32e6 | 4.89e6 | inactive
Lrt (GeneID 37342) | 1 | 1.11e5 | 1.39e5 | 1.48e6 | 2.22e6 | inactive
Lrt (GeneID 37342) | 2 | 2.58e5 | 2.35e5 | 6.29e5 | 5.39e5 | inactive
CG2915 (GeneID 35754) | 1 | 1.32e6 | 1.36e6 | 1.85e6 | 2.15e6 | inactive
RluA-1 (GeneID 34438) | 1 | 1.24e5 | 1.48e5 | 1.26e6 | 8.38e5 | inactive
RluA-1 (GeneID 34438) | 2 | 2.65e5 | 1.66e5 | 2.01e6 | 1.38e6 | inactive
Fas1 (GeneID 42025) | 1 | 1.68e5 | 1.37e5 | 2.26e6 | 1.76e6 | inactive
CG32318 + Klp61F + Psf1 | 1 | 2.24e5 | 2.54e5 | 3.68e5 | 3.77e5 | inactive
ND-24L (GeneID 39926) | 1 | 2.44e5 | 2.42e5 | 3.00e6 | 2.54e6 | inactive
ND-24L (GeneID 39926) | 2 | 6.27e5 | 4.90e5 | 1.33e6 | 1.34e6 | inactive
ics (GeneID 34774) | 1 | 9.49e5 | 1.63e6 | 1.84e6 | 2.97e6 | inactive
ics (GeneID 34774) | 2 | 3.26e5 | 5.51e5 | 9.33e5 | 9.33e5 | inactive
Acbp6 (GeneID 38782) | 1 | 2.44e5 | 1.60e5 | 2.84e6 | 3.98e6 | inactive
Wnt5 (GeneID 32838) | 1 | 6.98e5 | 5.23e5 | 2.37e6 | 2.68e6 | inactive
Wnt5 (GeneID 32838) | 2 | 5.39e5 | 4.27e5 | 1.07e6 | 1.51e6 | inactive
CG15522 (GeneID 43546) | 1 | 1.73e5 | 1.11e5 | 1.68e6 | 1.92e6 | inactive
CG15522 (GeneID 43546) | 2 | 6.19e5 | 6.59e5 | 1.81e6 | 1.81e6 | inactive
Octalpha2R (GeneID 42258) | 1 | 3.03e5 | 3.65e5 | 5.22e5 | 6.22e5 | inactive
Octalpha2R (GeneID 42258) | 2 | 1.76e5 | 1.59e5 | 1.75e6 | 1.75e6 | inactive
Orcokinin (GeneID 37806) | 1 | 2.45e5 | 2.72e5 | 2.23e6 | 1.74e6 | inactive
Trx2 (GeneID 34281) | 1 | 2.23e5 | 1.80e5 | 1.82e6 | 1.33e6 | inactive
Trx2 (GeneID 34281) | 2 | 4.35e5 | 5.32e5 | 1.08e6 | 1.28e6 | inactive
